# PubChem BioAssay AID2685 (National Center for Advancing Translational Sciences (NCATS), 2010)
# This is one part of the list. The main result of the screen is listed elsewhere. These columns were measured beside it and carry no call. The list favours compounds with an active or inconclusive main result. Words in brackets tell the shape of the fitted curve; partial curves, single points and poor fits give uncertain potencies.
# Experiment: qHTS Assay for Lipid Storage Modulators in Drosophila S3 Cells;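 for cell number change: cells counted by Cell Tracker Red CMTPX staining in the red channel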
# Details: BODIPY lipid droplet fluorescence, 18-24 h; for cell number change: measured here: cell count max response, cells fed with added oleic acid
# Procedure, shortened: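 Drosophila S3 cells got compounds at several concentrations plus oleic acid (400 uM solution). Laser-scanning cytometry with 488 nm excitation read lipid droplets at 500-530 nm and cells at 575-640 nm. Percent activity was relative to 20 uM Triacsin C.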
# [1] = measured here: lipid fluorescence (Fed channel) AC50, cells fed with added oleic acid
# [2] = measured here: cell number channel AC50, cells fed with added oleic acid
Compound,AC50 [1],cell number change [%],AC50 [2]
COc1cccc(Oc2cnc(N)nc2-c2ccc(OC)cc2O)c1,"6.51 µM [rising, single point]",–,–
N#Cc1c(-c2ccccc2Cl)cc(-c2ccccc2)nc1Br,"29.1 µM [falling, single point]",-28,–
COC(=O)c1ccccc1NC(=O)c1ccc(NC(=O)C2CCCO2)cc1 (stereo unspecified),"0.58 µM [falling, full curve, poor fit]",-41.7,"16.4 µM [falling, partial curve]"
O=C(CN1CCCC1)Nc1nc(-c2ccc3c(c2)CCN3C(=O)c2ccccc2F)cs1,–,3.85,–
O=C(C(NS(=O)(=O)c1cccs1)c1ccccc1)N1CCN(c2ccccc2)CC1 (stereo unspecified),"18.4 µM [falling, partial curve, poor fit]",-2.59,–
COc1ccc2[nH]cc(/C=C/C(=O)c3ccccc3)c2c1,"6.51 µM [falling, full curve]",-37.4,"6.51 µM [falling, full curve]"
Cc1ccccc1-c1nc(CN2CCC(C(=O)N3CCN(c4ccccn4)CC3)CC2)c(C)o1,"0.517 µM [rising, single point]",25.5,"2.31 µM [rising, full curve, poor fit]"
O=C(CN1CCN(C(=O)c2ccccc2)CC1)Nc1ccccc1,"29.1 µM [rising, single point]",–,–
C=CC(C)Sc1nc2c(c(=O)n(C)c(=O)n2C)n1Cc1ccccc1Cl (stereo unspecified),"2.31 µM [rising, partial curve]",–,–
Cc1ccc2c(c1)c(CC(=O)Nc1ccc(F)cc1)c(C(=O)O)n2C,"5.8 µM [falling, partial curve, poor fit]",-6.39,–
COc1ccc(Cl)cc1S(=O)(=O)N1CCN=C1c1ccccc1,"6.51 µM [falling, single point]",2.79,–
CN1CCN(C(=O)c2ccc(Cl)cc2)CC1,"16.4 µM [rising, partial curve]",10.3,–
c1ccc(C2CCC3(CC2)Oc2ccccc2C2CC(c4cccnc4)=NN23)cc1 (stereo unspecified),–,16.7,"0.259 µM [rising, full curve, poor fit]"
CCc1cc(=O)oc2cc(C)cc(OCC(=O)N3CCC(C(=O)O)CC3)c12,"0.184 µM [falling, full curve, poor fit]",-12.8,–
C=C(C)C1CC=C(C)/C(=N/NC(=O)c2ccc(NC(=O)c3cccc(C)c3)cc2)C1 (stereo unspecified),"29.1 µM [falling, partial curve, poor fit]",4.89,–
Cc1ccc(N2CCN(C(=O)N3CCCC3)CC2)cc1Cl,"3.66 µM [rising, partial curve]",–,"2.31 µM [rising, partial curve]"
O=C(Nc1nccs1)c1ccc(CSc2nnnn2-c2ccccc2)cc1,"0.13 µM [rising, full curve]",-1.57,–
C=C(Cl)COC(=O)[C@H]1C2C=CC(C2)C1C(=O)O (stereo partly specified),"18.4 µM [falling, partial curve]",-41.7,"7.31 µM [falling, partial curve]"
O=C(O)/C=C/c1cn(Cc2ccccc2Cl)nc1-c1ccccc1,"0.651 µM [rising, full curve, poor fit]",19.9,–
CCC(=O)Nc1cccc(C(=O)/C=C/c2cccs2)c1,–,0.955,–

# Some of these compounds in order of SMILES length, smallest number first:
Compound,AC50 [1],cell number change [%],AC50 [2]
CN1CCN(C(=O)c2ccc(Cl)cc2)CC1,"16.4 µM [rising, partial curve]",10.3,–
Cc1ccc(N2CCN(C(=O)N3CCCC3)CC2)cc1Cl,"3.66 µM [rising, partial curve]",–,"2.31 µM [rising, partial curve]"
N#Cc1c(-c2ccccc2Cl)cc(-c2ccccc2)nc1Br,"29.1 µM [falling, single point]",-28,–
COc1cccc(Oc2cnc(N)nc2-c2ccc(OC)cc2O)c1,"6.51 µM [rising, single point]",–,–
COc1ccc(Cl)cc1S(=O)(=O)N1CCN=C1c1ccccc1,"6.51 µM [falling, single point]",2.79,–
O=C(O)/C=C/c1cn(Cc2ccccc2Cl)nc1-c1ccccc1,"0.651 µM [rising, full curve, poor fit]",19.9,–
COC(=O)c1ccccc1NC(=O)c1ccc(NC(=O)C2CCCO2)cc1 (stereo unspecified),"0.58 µM [falling, full curve, poor fit]",-41.7,"16.4 µM [falling, partial curve]"
C=CC(C)Sc1nc2c(c(=O)n(C)c(=O)n2C)n1Cc1ccccc1Cl (stereo unspecified),"2.31 µM [rising, partial curve]",–,–
CCc1cc(=O)oc2cc(C)cc(OCC(=O)N3CCC(C(=O)O)CC3)c12,"0.184 µM [falling, full curve, poor fit]",-12.8,–
c1ccc(C2CCC3(CC2)Oc2ccccc2C2CC(c4cccnc4)=NN23)cc1 (stereo unspecified),–,16.7,"0.259 µM [rising, full curve, poor fit]"
O=C(C(NS(=O)(=O)c1cccs1)c1ccccc1)N1CCN(c2ccccc2)CC1 (stereo unspecified),"18.4 µM [falling, partial curve, poor fit]",-2.59,–
O=C(CN1CCCC1)Nc1nc(-c2ccc3c(c2)CCN3C(=O)c2ccccc2F)cs1,–,3.85,–
C=C(C)C1CC=C(C)/C(=N/NC(=O)c2ccc(NC(=O)c3cccc(C)c3)cc2)C1 (stereo unspecified),"29.1 µM [falling, partial curve, poor fit]",4.89,–

# Going on with the list:

Compound,AC50 [1],cell number change [%],AC50 [2]
Cc1cc(C(=O)NNC(=O)COc2c(C)cc(Br)cc2C)n[nH]1,"16.4 µM [rising, partial curve, poor fit]",9.65,–
CC(C)c1cccc(-c2ccc3c(c2)S(=O)(=O)c2cccc(C(=O)O)c2C3=O)c1,"23.1 µM [rising, single point]",16,–
CC1(C)C(=O)OC(c2c3ccccc3cc3ccccc23)C(C)(C)C1=O (stereo unspecified),"0.731 µM [falling, single point]",2.35,–
CCN(CC(=O)Nc1ccccc1C(F)(F)F)C(=O)Cn1c(=O)cnc2ccccc21,–,-23.3,"0.651 µM [falling, full curve, poor fit]"
CCOC(=O)c1c(C)[nH]c(N=Nc2ccccc2Cl)c1C,"7.31 µM [falling, partial curve]",-35.3,"8.2 µM [falling, partial curve]"
CC(CC(=O)N1CCN(S(=O)(=O)c2ccc(Cl)cc2)CC1)n1cncn1 (stereo unspecified),–,2.7,–
CCN(CC)S(=O)(=O)c1cc(C(=O)NC2=NCCS2)ccc1Cl,–,9.26,–
COc1cc2oc(=O)ccc2cc1[C@H](O)[C@@H](O)C(C)(C)O,"29.1 µM [rising, single point]",10.7,–
COc1ccc(C(=O)NC(=S)NC(C)(C)C)cc1Br,–,-32,"18.4 µM [falling, single point]"
C=CCOc1c(Br)cc(/C=N\n2nnnc2N)cc1OC,"1.84 µM [rising, partial curve, poor fit]",–,"1.03 µM [rising, partial curve]"
O=C(Cn1cc(C(F)(F)F)cc(Cl)c1=O)NCc1ccc(F)cc1,"6.51 µM [falling, partial curve]",-21,–
CCOC(=O)CC(NS(=O)(=O)Cc1ccccc1)c1ccc(C)cc1 (stereo unspecified),"0.00461 µM [falling, full curve, poor fit]",-7.46,–
CCN(CCCNC(=O)C1CCN(S(=O)(=O)CC)CC1)c1ccccc1,–,-3.99,–
COc1ccccc1/C=C/C(=O)NCC(=O)N1CCC(N(C)C2CCCC2)CC1,"0.184 µM [falling, full curve, poor fit]",-25,–
Cc1cnc(C(=O)Oc2ccc(-c3ccccc3)cc2)cn1,"29.1 µM [rising, single point]",8.82,–
CCc1ccc(OC)c(S(=O)(=O)Nc2ccccc2C)c1,"1.84 µM [rising, partial curve]",8.4,–
COc1ccc(/C=C/C(=O)c2oc3ccc(F)cc3c2C)cc1,"0.58 µM [rising, single point]",–,–
Cn1c(=O)c(=O)n(C)c2cc(N3CCOCC3)c(NS(=O)(=O)c3ccc(Br)cc3)cc21,"2.31 µM [falling, partial curve]",–,–
CCc1ccccc1N1C(=O)CC(Sc2nccc(C)n2)C1=O (stereo unspecified),"25.9 µM [falling, single point]",-2.91,–
O=C(Nc1ccc(CN2CCCCC2)cc1)c1ccc(Br)o1,"11.6 µM [rising, single point]",-0.364,–

Compound,AC50 [1],cell number change [%],AC50 [2]
COc1cc(-c2nnc(COC(=O)C3c4ccccc4Oc4ccccc43)o2)cc(OC)c1OC,–,-6.54,–
COc1ccc(C(=O)CC2(C(=O)O)CCCCC2)cc1,–,8.73,–
COc1ccc(CC(=O)Nc2cccc(/C(C)=N/NC(=O)c3cccc([N+](=O)[O-])c3)c2)cc1,–,-12.8,–
CC(C)CCCN1C(N(C)C)=NC[C@@H]1C,–,15,–
CC(C)(C)c1cc(CN2CCN(CCO)CC2)cc(C(C)(C)C)c1O,"14.6 µM [falling, single point]",-11.4,–
COc1ccc(C(=O)NCc2nnc(SCC(=O)Nc3cccc(OC)c3)o2)cc1,"6.51 µM [rising, single point]",–,–
CCCn1c(=N)n(CC(=O)C(C)(C)C)c2ccccc21,"29.1 µM [falling, single point]",-37.1,"16.4 µM [falling, single point]"
O=C(CC(=O)c1ccccc1)Nc1cc([N+](=O)[O-])ccc1Cl,"23.1 µM [falling, single point]",13.9,–
Clc1cc(Br)ccc1NCc1cccnc1,–,-14.9,–
C=CCn1c(SCn2nnc3ccccc3c2=O)nnc1-c1ccc(F)cc1,"23.1 µM [rising, single point]",5.19,–
CCn1nc(C)cc1C(=O)N1CCCC(C(=O)c2ccc(OC)cc2C)C1 (stereo unspecified),"6.51 µM [rising, partial curve]",-6.76,–
CCc1nn(C(CC)C(=O)NCCCN2CC(C)CC(C)C2)c(=O)c2cc3oc(C)cc3n12 (stereo unspecified),"29.1 µM [rising, single point]",37.3,"32.6 µM [rising, single point]"
COC(=O)c1ccccc1NC(=O)Cn1cnc([N+](=O)[O-])c1,"29.1 µM [rising, single point]",15.1,–
C=CC1C(OC2OC(CO)C(O)C(O)C2O)OC=C(C(=O)OC)C1CC1CC(=O)CC(CC(=O)CCc2ccc(O)cc2)O1 (stereo unspecified),"29.1 µM [falling, single point]",-17,–
Cc1cccc(N(C(=O)CCC(=O)Nc2cc(C)on2)C(C(=O)NC2CCCC2)c2ccc(C)o2)c1 (stereo unspecified),–,12.6,"5.8 µM [rising, partial curve, poor fit]"
O=C(Nc1cc(S(=O)(=O)N2CCCC2)ccc1OCC(F)(F)F)c1ccccc1F,"0.103 µM [falling, full curve]",-2.3,–
N=C1/C(=C/c2cccn2CCOc2ccccc2)C(=O)N=C2SC=C(c3ccccc3)N12,"2.91 µM [rising, partial curve]",6.01,–
CCSc1nnc(NC(=O)CCNS(=O)(=O)c2cc(Br)cnc2N)s1,"1.3 µM [falling, full curve]",–,–
Cc1occc1C(=O)NNC(=S)NCc1ccc(Cl)cc1,"0.461 µM [falling, full curve, poor fit]",-14.9,"0.461 µM [falling, partial curve, poor fit]"
CCn1cc(C(=O)NCCCOC)c(=O)c2cc(S(=O)(=O)N3CCCC3)ccc21,–,-32.9,"32.6 µM [falling, single point]"
